In paper PMC11094088, “Molecular mechanism of Oxr1p mediated disassembly of yeast V-ATPase” (EMBO Reports, 2024) one finds binding data, which are given here for two molecules.

The target of assay [1] is T1, recombinant N-terminally 7×His tagged biotinylated Oxr1p (bio-Oxr1p) (yeast) (UniProt Q08952).
T1 sequence (chain, biotin on the Avi tag (incomplete biotinylation)): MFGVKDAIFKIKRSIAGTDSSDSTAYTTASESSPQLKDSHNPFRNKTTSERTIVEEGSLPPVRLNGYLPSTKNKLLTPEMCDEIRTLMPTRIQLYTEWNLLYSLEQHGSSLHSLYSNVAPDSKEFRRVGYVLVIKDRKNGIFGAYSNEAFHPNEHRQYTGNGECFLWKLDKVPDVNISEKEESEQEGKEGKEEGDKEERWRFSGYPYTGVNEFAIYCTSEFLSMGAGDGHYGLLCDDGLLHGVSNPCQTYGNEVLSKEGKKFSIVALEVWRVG
Briefly: pull-down; purified vacuoles incubated with bio-Oxr1p 30 min at room temperature, ultracentrifuged; supernatant incubated with buffer or 4 mM MgAMP-PNP 30 min at 4 °C; bio-Oxr1p captured on streptavidin beads 60 min at 4 °C; western blot; only the target purified. For orientation: A western blot detects proteins with antibodies after separation by electrophoresis.

The target in assay [2] is T1, recombinant N-terminally 7×His tagged biotinylated Oxr1p (bio-Oxr1p) (yeast). Briefly: pull-down; as a5, but supernatant incubated with 4 mM MgATP 30 min at 4 °C before capture of bio-Oxr1p on streptavidin beads; only the target purified.

These are yes or no findings as the source states them, for the method shown. Binding seen in cells or lysates may run through a third protein. Some entries that bind do so weakly or less than the wild type. Where a sequence is shown, tags or fusion partners need not be part of it.

B1: V1 subunit C (Vma5p), endogenous, from vacuoles (protein, UniProt P31412 1-392)
chain: MATALYTANDFILISLPQNAQPVTAPGSKTDSWFNETLIGGRAFVSDFKIPEFKIGSLDTLIVESEELSKVDNQIGASIGKIIEILQGLNETSTNAYRTLPINNMPVPEYLENFQWQTRKFKLDKSIKDLITLISNESSQLDADVRATYANYNSAKTNLAAAERKKTGDLSVRSLHDIVKPEDFVLNSEHLTTVLVAVPKSLKSDFEKSYETLSKNVVPASASVIAEDAEYVLFNVHLFKKNVQEFTTAAREKKFIPREFNYSEELIDQLKKEHDSAASLEQSLRVQLVRLAKTAYVDVFINWFHIKALRVYVESVLRYGLPPHFNIKIIAVPPKNLSKCKSELIDAFGFLGGNAFMKDKKGKINKQDTSLHQYASLVDTEYEPFVMYIINL
For B1, the binding result in assay [1] is on record as “binds”; in assay [2], “no binding (condition: with 4 mM MgATP)”.

B2: V1 subunit H (Vma13p), endogenous, from vacuoles (protein, UniProt P41807 1-478)
chain: MGATKILMDSTHFNEIRSIIRSRSVAWDALARSEELSEIDASTAKALESILVKKNIGDGLSSSNNAHSGFKVNGKTLIPLIHLLSTSDNEDCKKSVQNLIAELLSSDKYGDDTVKFFQEDPKQLEQLFDVSLKGDFQTVLISGFNVVSLLVQNGLHNVKLVEKLLKNNNLINILQNIEQMDTCYVCIRLLQELAVIPEYRDVIWLHEKKFMPTLFKILQRATDSQLATRIVATNSNHLGIQLQYHSLLLIWLLTFNPVFANELVQKYLSDFLDLLKLVKITIKEKVSRLCISIILQCCSTRVKQHKKVIKQLLLLGNALPTVQSLSERKYSDEELRQDISNLKEILENEYQELTSFDEYVAELDSKLLCWSPPHVDNGFWSDNIDEFKKDNYKIFRQLIELLQAKVRNGDVNAKQEKIIIQVALNDITHVVELLPESIDVLDKTGGKADIMELLNHSDSRVKYEALKATQAIIGYTFK
Take B2: the binding entry in assay [1] is listed as “binds”; in assay [2], “no binding (condition: with 4 mM MgATP)”.
